Source: paper doi:10.1101/2021.08.20.456807
These are yes or no findings as the source states them, for the method shown. Binding seen in cells or lysates may run through a third protein. Some results given as binding are weak or reduced against the parent protein; the word gives no strength.

Sequences of proteins named here, by UniProt entry; tags and fusion partners are left off.
UniProt P08670: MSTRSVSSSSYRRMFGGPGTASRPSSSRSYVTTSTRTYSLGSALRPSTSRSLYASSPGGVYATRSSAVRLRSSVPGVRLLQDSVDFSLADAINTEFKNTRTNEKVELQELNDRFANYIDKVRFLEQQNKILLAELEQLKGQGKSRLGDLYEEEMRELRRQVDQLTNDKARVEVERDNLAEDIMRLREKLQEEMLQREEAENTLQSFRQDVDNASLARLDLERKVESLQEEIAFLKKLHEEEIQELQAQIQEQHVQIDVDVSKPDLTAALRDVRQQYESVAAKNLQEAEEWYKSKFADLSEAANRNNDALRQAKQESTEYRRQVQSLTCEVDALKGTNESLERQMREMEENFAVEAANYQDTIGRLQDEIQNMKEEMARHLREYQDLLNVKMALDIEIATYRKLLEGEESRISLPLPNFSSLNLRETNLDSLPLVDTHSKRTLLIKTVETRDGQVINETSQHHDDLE
UniProt Q9NZJ4: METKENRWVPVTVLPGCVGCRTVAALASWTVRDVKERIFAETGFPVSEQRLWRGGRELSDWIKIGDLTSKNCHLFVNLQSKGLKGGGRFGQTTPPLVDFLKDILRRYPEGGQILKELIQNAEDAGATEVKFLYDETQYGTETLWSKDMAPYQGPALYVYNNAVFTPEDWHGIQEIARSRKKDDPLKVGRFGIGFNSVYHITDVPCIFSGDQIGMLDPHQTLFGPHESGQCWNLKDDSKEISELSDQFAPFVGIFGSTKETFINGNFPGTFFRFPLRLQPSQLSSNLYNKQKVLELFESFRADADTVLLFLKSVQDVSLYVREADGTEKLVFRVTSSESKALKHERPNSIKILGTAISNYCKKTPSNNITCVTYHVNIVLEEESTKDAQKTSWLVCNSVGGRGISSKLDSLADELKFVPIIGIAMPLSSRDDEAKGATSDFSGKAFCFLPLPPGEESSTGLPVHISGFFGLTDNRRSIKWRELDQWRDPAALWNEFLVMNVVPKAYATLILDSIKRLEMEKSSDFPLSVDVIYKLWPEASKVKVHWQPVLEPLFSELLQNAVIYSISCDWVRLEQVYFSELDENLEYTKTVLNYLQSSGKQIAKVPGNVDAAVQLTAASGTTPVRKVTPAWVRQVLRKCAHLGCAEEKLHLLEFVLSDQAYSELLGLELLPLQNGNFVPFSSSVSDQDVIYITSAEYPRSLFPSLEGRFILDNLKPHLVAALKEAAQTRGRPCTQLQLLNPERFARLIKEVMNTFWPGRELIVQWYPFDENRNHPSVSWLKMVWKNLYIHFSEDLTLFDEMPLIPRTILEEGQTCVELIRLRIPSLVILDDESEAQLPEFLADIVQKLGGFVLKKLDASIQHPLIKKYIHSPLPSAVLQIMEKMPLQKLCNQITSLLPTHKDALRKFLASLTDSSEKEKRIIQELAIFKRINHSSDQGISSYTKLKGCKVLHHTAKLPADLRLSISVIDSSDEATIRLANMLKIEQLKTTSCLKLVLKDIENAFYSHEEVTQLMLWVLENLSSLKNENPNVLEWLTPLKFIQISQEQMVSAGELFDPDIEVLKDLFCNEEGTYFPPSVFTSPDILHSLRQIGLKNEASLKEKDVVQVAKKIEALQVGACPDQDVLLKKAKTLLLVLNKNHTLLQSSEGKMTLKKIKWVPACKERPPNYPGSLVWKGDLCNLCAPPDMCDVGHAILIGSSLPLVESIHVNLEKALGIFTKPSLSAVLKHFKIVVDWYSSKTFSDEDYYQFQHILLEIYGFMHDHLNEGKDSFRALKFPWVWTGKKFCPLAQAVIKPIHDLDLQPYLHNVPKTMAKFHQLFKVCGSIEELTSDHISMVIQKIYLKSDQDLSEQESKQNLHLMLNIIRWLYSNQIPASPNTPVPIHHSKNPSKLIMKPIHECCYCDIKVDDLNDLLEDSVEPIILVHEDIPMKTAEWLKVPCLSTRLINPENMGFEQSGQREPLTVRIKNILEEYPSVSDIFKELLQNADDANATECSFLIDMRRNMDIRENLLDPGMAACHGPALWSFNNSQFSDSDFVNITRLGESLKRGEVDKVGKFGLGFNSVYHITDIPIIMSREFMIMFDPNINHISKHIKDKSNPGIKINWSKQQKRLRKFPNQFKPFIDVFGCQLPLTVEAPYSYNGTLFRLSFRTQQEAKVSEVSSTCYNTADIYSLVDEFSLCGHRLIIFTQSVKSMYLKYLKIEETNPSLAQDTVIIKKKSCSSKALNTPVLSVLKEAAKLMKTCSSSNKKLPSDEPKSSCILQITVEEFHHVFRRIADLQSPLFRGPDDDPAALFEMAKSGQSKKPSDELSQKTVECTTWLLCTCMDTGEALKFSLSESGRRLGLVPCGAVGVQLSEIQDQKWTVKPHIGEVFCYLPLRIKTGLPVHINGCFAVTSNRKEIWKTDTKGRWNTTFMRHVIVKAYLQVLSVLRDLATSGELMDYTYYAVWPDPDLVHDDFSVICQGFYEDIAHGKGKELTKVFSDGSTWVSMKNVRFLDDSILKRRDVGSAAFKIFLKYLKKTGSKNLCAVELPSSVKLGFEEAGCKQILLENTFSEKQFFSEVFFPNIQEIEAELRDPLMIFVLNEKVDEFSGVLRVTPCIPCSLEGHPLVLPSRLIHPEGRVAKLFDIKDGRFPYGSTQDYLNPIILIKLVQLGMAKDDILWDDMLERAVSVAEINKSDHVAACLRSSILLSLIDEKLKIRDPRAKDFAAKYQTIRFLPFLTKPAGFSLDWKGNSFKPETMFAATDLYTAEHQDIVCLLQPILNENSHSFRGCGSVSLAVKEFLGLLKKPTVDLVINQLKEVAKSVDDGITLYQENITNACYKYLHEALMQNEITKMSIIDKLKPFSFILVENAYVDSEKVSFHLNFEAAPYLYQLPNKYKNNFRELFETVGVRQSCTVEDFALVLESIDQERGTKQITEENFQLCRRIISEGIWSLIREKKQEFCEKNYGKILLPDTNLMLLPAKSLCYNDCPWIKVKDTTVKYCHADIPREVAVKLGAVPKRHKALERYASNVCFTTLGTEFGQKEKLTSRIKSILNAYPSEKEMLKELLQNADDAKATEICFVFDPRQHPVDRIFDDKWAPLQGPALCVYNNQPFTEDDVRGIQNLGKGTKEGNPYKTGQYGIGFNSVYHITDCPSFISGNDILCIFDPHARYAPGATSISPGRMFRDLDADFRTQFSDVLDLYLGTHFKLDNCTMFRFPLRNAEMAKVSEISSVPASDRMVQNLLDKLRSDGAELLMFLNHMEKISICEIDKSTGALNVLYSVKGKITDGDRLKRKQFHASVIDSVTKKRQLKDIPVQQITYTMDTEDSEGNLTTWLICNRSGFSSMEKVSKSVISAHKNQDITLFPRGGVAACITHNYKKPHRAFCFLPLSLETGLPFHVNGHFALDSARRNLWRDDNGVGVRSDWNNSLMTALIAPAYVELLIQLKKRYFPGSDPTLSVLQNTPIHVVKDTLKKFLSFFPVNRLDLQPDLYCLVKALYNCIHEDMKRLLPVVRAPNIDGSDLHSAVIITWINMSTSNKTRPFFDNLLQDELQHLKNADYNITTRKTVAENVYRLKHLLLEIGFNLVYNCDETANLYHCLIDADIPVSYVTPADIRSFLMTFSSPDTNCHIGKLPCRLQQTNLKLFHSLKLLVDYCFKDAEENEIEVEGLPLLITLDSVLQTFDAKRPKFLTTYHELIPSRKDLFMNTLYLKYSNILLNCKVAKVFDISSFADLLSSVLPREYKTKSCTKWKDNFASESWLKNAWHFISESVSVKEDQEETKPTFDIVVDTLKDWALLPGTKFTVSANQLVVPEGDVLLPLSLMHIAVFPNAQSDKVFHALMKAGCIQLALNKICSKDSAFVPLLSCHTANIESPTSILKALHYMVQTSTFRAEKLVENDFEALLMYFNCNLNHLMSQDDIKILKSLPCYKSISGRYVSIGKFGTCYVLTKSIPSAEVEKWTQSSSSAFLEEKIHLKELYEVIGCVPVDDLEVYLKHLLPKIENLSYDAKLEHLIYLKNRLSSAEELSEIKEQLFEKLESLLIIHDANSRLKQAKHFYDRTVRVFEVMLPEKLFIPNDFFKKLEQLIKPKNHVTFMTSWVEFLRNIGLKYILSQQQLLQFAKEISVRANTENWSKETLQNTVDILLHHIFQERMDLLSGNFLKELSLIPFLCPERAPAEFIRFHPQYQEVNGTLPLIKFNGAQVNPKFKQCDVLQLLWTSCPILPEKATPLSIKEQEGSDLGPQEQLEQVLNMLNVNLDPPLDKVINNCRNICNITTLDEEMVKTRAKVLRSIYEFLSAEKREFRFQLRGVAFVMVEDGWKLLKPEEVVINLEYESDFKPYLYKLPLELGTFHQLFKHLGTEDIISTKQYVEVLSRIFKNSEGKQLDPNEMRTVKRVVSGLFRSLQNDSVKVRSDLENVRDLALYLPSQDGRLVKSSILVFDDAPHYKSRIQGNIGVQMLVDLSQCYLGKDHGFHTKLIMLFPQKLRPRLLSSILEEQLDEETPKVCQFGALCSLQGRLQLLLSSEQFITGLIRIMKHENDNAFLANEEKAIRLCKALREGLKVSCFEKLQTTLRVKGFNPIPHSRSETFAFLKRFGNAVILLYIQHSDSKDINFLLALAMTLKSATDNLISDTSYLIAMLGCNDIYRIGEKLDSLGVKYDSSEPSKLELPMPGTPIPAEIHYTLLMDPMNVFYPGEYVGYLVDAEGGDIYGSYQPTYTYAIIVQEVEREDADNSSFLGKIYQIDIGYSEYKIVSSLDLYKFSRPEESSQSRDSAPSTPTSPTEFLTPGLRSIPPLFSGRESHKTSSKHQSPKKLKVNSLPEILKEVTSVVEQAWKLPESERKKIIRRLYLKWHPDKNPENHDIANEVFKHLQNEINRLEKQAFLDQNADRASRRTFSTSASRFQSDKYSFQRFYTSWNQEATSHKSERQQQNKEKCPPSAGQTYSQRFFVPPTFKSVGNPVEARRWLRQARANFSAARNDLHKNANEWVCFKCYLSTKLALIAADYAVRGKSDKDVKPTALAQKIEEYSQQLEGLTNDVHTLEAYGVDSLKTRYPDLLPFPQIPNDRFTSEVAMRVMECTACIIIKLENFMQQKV

Experiments:
[1] = biological target: vimentin (human (endogenous in SH-SY5Y)) (UniProt P08670); assay: co-IP
[2] = biological target: sacsin (human (endogenous in SH-SY5Y)) (UniProt Q9NZJ4); assay: co-IP

binding [1] | binding [2] | Substance
binds |  | sacsin (from UniProt Q9NZJ4 1-4579)
 | binds | vimentin (from UniProt P08670 1-466)
